Source: paper doi:10.1101/2024.03.20.585881
No constants are given. Whether binding was seen depends on the method and setting. Some results given as binding are weak or reduced against the parent protein; the word gives no strength.

Sequences of proteins named here, by UniProt entry; tags and fusion partners are left off.
UniProt O15169: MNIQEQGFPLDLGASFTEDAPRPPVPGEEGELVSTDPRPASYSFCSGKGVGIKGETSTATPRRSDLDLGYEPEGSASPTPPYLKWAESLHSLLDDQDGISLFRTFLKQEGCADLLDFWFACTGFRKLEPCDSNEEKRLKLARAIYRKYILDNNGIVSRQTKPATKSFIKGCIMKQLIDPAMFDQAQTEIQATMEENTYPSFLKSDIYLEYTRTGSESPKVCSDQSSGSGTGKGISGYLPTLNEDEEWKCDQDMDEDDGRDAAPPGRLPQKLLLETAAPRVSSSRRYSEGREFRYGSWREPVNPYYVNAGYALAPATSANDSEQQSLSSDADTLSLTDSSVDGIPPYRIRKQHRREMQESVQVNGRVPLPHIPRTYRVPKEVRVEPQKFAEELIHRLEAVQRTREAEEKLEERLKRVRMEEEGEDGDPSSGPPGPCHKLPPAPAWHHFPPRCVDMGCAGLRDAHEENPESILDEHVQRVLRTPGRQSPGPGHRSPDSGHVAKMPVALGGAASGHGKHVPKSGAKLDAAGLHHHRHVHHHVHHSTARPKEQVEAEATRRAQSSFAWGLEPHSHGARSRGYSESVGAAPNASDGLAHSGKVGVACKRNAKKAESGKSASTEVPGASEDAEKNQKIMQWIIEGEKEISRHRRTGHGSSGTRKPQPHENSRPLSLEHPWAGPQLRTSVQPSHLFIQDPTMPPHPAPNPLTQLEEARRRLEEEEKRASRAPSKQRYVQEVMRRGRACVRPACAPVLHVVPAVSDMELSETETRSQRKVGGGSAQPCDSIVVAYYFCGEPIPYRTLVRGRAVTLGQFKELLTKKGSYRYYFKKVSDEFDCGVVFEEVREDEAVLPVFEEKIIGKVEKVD
UniProt Q5T5U3: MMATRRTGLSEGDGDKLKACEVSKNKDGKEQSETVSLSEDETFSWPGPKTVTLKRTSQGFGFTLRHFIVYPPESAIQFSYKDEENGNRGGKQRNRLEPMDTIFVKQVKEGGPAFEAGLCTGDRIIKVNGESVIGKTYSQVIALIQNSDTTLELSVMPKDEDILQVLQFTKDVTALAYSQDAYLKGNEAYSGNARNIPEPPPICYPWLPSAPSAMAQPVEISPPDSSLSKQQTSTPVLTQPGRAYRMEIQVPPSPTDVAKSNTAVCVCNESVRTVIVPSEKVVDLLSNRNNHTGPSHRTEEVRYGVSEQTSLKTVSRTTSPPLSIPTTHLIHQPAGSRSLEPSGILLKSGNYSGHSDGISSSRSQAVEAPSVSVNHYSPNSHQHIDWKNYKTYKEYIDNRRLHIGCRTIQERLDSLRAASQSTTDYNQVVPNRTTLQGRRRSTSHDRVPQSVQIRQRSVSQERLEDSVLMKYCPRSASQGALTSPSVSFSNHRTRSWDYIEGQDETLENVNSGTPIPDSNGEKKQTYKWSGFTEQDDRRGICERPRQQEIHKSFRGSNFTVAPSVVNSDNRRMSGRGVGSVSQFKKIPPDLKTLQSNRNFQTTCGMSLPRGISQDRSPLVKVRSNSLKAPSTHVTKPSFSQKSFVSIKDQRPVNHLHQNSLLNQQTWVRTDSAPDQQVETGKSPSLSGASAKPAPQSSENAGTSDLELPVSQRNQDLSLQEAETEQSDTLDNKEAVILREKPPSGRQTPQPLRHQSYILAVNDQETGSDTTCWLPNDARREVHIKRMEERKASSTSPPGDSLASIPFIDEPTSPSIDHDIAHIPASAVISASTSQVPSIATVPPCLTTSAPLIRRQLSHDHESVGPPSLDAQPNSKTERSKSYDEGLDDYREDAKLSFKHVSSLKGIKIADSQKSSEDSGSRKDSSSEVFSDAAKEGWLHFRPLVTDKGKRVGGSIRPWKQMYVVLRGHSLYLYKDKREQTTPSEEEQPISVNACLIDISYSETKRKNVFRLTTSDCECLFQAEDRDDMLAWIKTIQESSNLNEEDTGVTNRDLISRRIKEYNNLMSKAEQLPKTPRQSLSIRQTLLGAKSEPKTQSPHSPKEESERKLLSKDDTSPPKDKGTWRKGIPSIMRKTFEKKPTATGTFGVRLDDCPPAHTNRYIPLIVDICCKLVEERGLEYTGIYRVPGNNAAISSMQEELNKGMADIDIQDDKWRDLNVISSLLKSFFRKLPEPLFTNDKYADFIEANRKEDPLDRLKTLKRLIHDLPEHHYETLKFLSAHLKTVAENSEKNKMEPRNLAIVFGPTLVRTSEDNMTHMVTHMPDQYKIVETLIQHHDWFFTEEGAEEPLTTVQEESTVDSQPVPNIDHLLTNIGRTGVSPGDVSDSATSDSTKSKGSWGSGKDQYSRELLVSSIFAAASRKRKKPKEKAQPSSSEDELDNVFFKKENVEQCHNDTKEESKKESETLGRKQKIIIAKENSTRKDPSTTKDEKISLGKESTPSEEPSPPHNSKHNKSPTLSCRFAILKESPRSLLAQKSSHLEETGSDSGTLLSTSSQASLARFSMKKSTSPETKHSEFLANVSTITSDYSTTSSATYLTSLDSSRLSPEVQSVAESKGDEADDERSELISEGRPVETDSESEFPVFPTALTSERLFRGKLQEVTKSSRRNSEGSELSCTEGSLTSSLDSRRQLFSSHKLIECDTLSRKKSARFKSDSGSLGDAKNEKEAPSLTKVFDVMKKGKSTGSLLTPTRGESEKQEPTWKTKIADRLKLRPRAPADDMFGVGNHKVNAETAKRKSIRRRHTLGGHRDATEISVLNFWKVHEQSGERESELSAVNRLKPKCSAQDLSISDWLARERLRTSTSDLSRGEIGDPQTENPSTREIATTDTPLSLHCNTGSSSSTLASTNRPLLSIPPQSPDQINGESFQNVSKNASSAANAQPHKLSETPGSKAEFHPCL
UniProt Q9HCK1: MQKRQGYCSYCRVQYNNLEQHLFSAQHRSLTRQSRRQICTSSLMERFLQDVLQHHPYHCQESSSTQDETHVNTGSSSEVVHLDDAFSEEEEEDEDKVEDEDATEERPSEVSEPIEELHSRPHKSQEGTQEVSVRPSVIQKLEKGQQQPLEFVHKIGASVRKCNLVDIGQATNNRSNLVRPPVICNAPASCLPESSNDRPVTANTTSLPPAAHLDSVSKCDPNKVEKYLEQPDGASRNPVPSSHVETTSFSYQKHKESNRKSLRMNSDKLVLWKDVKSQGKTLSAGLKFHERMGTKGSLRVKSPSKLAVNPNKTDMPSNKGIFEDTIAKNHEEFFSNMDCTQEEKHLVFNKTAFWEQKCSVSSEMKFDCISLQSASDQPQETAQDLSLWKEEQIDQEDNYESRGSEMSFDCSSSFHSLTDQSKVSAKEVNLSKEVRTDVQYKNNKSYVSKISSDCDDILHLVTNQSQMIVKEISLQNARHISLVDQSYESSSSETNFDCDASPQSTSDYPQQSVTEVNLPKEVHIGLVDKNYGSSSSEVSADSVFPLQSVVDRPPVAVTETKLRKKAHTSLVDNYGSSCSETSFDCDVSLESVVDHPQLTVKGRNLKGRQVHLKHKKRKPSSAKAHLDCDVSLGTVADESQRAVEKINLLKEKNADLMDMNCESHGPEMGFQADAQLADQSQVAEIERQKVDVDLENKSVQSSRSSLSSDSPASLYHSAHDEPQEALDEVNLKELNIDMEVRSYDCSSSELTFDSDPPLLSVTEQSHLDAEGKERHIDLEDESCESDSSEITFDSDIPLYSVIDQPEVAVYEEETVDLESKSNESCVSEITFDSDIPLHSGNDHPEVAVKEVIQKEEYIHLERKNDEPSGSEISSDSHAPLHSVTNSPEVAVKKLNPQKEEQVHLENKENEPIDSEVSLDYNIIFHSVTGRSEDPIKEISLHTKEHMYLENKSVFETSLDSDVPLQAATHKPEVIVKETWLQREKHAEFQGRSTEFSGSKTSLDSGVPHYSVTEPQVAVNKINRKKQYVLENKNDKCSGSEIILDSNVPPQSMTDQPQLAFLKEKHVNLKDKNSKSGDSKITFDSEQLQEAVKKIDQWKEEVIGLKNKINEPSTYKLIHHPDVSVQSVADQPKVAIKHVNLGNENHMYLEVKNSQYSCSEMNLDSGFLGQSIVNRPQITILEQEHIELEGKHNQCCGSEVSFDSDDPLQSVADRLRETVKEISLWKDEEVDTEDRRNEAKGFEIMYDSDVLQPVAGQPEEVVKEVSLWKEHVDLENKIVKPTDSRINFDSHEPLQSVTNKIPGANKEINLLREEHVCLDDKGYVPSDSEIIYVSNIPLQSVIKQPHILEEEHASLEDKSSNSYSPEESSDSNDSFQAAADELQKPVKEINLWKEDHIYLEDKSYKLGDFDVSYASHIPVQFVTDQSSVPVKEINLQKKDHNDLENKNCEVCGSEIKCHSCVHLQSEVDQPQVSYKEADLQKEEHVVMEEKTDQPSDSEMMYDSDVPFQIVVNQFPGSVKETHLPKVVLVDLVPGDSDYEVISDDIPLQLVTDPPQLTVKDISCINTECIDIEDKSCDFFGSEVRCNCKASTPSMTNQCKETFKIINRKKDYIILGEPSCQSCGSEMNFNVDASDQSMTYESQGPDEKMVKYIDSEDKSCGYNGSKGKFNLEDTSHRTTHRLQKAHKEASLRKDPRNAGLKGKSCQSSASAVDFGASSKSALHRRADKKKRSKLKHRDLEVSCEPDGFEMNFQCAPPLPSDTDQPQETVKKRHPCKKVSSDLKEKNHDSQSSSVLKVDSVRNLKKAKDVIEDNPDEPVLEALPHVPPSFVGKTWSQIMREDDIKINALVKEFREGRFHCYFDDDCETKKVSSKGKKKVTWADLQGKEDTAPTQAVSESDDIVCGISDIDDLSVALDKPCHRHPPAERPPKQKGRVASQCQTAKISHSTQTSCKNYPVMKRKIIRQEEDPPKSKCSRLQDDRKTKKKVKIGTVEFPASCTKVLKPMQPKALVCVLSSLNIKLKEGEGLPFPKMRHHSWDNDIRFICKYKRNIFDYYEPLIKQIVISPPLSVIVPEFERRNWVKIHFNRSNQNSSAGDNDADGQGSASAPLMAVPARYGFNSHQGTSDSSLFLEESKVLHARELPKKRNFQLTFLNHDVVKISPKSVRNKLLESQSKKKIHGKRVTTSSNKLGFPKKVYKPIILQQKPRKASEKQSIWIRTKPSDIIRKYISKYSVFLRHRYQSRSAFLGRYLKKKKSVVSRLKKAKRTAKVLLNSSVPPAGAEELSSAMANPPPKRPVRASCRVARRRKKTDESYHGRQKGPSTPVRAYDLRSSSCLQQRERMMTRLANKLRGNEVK
UniProt P35222: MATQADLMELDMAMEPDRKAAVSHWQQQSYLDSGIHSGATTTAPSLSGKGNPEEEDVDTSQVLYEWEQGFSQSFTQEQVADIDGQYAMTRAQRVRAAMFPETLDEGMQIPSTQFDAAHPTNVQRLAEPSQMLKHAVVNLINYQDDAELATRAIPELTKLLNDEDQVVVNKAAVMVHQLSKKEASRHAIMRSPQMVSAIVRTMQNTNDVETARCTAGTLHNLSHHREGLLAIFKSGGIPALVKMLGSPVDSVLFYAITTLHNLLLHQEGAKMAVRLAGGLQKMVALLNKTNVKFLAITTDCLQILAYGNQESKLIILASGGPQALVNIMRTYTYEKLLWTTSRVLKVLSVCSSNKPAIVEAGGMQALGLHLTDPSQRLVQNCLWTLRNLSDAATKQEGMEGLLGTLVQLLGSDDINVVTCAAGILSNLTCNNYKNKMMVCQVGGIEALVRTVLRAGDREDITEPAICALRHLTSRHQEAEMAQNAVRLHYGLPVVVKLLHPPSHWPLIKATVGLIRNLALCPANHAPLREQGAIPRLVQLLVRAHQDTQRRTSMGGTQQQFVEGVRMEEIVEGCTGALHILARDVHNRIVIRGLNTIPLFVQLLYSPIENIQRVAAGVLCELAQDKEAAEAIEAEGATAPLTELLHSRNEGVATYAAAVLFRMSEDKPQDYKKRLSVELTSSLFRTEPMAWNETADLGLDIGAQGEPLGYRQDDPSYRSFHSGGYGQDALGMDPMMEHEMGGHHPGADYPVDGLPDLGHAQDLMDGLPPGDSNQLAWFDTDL

How the values were obtained:
3xFLAG-eGFP-Axin1 = 3xFLAG-eGFP-Axin1 (UniProt O15169); assay: RNA immunoprecipitation with sequencing
[1] = molecular target: 3xFLAG-mScarlet-APC (human (endogenous in HEK293)) (UniProt P25054); assay: RNA immunoprecipitation with sequencing

binding (3xFLAG-eGFP-Axin1)	binding [1]	Substance
binds		ARHGAP21 (from UniProt Q5T5U3 1-1958)
	binds	Axin1 (endogenous) (from UniProt O15169 1-862)
	binds	ZDBF2 (from UniProt Q9HCK1 1-2354)
binds		β-catenin (from UniProt P35222 1-781)
